The results in this text go back to paper PMC6179307 (2018).

Amino acid sequences for entries named in this document (tags omitted). A change or cut given only in a name is not applied to a line headed by its entry. Residues count along the entry.
UniProt Q06561, residues 23-3375: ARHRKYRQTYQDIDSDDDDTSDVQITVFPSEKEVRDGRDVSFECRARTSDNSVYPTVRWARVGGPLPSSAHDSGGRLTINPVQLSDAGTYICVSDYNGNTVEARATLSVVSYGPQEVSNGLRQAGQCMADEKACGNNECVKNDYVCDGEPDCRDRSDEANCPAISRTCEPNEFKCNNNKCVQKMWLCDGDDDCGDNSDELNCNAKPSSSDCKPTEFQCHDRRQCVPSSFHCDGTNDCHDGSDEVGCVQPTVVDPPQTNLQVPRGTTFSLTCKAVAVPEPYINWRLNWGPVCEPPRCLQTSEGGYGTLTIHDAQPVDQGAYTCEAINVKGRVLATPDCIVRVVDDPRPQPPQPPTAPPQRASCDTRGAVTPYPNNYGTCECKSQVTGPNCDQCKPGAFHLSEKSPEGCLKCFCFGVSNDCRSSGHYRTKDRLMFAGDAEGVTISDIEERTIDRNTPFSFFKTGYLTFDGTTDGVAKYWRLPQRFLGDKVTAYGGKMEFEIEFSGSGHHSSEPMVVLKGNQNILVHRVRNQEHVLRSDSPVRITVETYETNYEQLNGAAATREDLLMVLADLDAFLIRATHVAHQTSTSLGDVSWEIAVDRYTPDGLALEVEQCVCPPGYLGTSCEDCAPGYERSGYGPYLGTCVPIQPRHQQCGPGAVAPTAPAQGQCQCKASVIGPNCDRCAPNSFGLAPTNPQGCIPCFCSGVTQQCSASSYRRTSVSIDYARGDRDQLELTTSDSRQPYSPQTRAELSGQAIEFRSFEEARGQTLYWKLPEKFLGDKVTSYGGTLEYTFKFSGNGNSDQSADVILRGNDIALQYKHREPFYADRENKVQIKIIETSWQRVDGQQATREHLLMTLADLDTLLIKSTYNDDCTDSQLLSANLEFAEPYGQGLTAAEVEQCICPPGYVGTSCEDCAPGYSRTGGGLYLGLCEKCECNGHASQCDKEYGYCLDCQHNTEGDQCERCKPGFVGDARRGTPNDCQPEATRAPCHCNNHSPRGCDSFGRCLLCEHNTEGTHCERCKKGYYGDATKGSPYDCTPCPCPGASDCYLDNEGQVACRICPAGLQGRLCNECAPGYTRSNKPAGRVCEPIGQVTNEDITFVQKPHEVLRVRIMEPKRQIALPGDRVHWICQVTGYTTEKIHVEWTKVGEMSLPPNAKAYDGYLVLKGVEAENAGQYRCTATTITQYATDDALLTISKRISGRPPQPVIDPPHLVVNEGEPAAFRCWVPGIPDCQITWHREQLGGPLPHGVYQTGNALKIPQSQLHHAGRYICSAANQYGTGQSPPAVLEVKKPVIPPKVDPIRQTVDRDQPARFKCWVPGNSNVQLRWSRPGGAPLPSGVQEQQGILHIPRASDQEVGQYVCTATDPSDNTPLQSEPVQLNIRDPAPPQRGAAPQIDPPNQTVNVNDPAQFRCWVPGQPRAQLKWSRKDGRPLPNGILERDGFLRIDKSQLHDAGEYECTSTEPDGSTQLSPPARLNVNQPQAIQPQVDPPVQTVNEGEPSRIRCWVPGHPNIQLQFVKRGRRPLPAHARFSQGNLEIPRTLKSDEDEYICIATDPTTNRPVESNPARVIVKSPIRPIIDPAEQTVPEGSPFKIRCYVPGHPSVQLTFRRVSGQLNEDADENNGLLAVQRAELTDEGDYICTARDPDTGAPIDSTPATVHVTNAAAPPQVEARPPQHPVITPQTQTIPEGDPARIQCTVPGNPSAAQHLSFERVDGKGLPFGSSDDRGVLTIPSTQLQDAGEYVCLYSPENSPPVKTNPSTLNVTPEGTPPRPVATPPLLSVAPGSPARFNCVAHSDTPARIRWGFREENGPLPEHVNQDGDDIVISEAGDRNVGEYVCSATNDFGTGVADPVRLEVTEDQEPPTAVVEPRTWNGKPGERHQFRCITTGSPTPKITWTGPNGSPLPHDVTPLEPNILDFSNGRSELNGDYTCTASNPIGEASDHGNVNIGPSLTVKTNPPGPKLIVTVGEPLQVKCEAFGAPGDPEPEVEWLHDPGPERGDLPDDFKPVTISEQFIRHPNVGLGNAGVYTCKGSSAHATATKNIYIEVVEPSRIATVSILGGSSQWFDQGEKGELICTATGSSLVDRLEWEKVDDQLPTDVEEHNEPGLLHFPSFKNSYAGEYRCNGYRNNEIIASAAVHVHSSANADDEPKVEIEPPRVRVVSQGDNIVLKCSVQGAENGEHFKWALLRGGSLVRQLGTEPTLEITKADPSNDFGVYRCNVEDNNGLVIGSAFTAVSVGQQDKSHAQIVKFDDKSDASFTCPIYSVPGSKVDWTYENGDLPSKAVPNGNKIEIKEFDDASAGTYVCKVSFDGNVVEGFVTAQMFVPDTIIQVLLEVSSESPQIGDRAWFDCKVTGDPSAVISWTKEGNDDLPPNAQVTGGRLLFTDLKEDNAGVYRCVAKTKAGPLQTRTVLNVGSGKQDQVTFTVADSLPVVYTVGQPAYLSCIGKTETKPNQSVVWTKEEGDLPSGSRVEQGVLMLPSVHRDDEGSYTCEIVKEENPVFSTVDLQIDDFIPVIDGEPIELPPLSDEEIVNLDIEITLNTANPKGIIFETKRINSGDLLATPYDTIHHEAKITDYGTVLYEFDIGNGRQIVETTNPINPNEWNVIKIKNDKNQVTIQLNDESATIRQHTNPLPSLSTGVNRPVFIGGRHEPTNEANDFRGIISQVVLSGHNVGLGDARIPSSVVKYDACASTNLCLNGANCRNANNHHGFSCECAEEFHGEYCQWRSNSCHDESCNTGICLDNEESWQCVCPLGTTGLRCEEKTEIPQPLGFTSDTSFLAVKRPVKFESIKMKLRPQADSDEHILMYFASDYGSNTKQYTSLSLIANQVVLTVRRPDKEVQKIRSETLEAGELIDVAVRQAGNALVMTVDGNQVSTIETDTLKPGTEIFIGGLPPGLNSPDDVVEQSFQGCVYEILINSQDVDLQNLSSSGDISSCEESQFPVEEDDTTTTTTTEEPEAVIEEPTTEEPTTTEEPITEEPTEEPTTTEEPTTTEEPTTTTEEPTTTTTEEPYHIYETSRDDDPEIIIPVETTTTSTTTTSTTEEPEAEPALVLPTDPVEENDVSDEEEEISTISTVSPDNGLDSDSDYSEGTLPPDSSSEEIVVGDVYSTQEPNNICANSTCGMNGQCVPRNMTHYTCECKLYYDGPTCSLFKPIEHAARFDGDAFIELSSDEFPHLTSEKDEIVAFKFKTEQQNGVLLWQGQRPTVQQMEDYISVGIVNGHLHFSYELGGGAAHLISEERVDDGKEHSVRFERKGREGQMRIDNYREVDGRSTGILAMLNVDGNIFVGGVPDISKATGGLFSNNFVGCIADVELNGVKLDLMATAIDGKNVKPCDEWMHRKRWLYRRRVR
UniProt G5EFC1: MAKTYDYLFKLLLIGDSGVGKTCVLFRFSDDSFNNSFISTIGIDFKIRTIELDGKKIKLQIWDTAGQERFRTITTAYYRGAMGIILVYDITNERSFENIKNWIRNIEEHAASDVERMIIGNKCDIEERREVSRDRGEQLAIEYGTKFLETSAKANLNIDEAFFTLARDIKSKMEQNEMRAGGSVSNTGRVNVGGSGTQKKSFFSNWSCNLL
UniProt Q9XTT9: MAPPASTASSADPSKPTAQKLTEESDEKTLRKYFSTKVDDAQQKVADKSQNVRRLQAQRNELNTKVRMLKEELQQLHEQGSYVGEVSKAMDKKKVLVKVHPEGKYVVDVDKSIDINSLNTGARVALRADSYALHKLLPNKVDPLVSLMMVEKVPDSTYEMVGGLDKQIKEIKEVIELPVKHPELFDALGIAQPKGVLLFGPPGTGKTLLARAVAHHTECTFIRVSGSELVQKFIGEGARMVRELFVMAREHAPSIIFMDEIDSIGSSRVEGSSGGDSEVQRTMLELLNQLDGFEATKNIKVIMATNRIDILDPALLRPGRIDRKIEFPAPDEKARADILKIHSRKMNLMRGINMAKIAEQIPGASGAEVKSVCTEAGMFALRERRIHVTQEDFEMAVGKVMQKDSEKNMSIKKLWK
UniProt G5EDD4: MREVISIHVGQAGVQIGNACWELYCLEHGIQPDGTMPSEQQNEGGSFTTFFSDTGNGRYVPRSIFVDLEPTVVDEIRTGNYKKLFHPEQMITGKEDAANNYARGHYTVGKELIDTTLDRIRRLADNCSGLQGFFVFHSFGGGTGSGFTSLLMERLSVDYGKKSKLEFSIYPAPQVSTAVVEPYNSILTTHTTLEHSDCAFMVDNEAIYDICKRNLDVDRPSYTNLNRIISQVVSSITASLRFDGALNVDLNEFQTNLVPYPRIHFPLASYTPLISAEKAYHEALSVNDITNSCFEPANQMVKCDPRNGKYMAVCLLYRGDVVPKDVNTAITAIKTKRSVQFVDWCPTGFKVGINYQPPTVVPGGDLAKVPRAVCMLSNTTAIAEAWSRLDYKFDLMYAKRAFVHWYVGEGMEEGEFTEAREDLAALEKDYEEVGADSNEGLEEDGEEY
UniProt P17343: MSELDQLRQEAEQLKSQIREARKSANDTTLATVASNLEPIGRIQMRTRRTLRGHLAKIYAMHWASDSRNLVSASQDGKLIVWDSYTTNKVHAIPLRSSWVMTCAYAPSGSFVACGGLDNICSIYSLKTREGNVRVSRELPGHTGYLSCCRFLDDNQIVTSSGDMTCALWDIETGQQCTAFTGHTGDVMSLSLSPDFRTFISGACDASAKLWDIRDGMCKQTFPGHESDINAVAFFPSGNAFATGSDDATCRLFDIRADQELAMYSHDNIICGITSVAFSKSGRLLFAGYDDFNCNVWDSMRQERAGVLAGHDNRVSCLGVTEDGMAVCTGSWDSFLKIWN

The target of experiment [1] is T1, ELT-2::TY1::EGFP::3xFLAG (C. elegans) (UniProt Q10655).
T1 sequence: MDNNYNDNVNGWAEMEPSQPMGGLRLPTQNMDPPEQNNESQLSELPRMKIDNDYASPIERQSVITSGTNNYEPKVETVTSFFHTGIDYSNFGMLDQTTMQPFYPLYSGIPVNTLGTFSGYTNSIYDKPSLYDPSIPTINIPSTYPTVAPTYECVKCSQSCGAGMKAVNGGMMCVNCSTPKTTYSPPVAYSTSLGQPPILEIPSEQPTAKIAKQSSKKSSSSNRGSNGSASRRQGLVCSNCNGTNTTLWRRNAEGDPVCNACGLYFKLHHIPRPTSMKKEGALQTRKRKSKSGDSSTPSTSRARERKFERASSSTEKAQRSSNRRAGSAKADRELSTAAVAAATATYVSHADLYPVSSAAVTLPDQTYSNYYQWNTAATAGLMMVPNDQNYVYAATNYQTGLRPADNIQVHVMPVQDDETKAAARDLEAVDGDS
In words: affinity purification with mass spectrometry; GFP-Trap A beads on sonicated lysate of about 2,000 young adult ELT-2::GFP (OP56 x fer-1) animals exposed to P. aeruginosa PA14 for 12 hours at 25°C; 4°C for 4 hours; washed with 50 mM NH4HCO3; LC-MS/MS.

Experiment [2] has as its target T1, ELT-2::TY1::EGFP::3xFLAG (C. elegans). Described as above. The source holds these as a separate data set.

Like-named read-outs stand apart in the source and are kept apart here. These are yes or no findings as the source states them, for the method shown. In cells and extracts the contact can be indirect. Here binding means that the protein was enriched with, or labelled near, the bait; the list need not be complete. Sequences can lack the tags named with a protein.

For unc-52 (from UniProt Q06561 23-3375), the binding entry in experiment [1] is on record as “binds”.
On the same count and under the same terms, the entry for rab-8 (from UniProt G5EFC1) is “binds”; for RPT-6 (from UniProt Q9XTT9 1-416) it is “binds”.
As to tba-4 (from UniProt G5EDD4), the binding result in experiment [1] was “binds”.
On to gpb-1 (from UniProt P17343 1-340), for which the binding result in experiment [1] is reported as “binds”.

B1: hsp-12.2 (protein, UniProt P34328 1-110)
chain: MSAIEVTADAASTWDWPLQHNDGVVKVHNTKEKFEVGLDVQFFTPKEIEVKVSGQELLIHCRHETRSDNHGTVAREINRAYKLPDDVDVSTVKSHLATRGVLTITASKKA
With B1, in experiment [2], the binding result is “binds”.

B2: eif-3.E (protein, UniProt O61820 1-432)
chain: MSTFDLTQRMAPFLDLHLIIPLLEFIEPRGIYDEKSLTEMHRQLLTKTNMIDSVIETYNGKPIPAAIEAKKKQIIKERDELKSKVDSVVAILEIPEVKEMMDNNRERDGNVRILEHLTQNHNFTVDMVDTLFKYSKFMYECGNYTVASVCLYYYRNLVNQADPNYLNALYGKLASEILLQEWEHARDDLLKLRAYIDANPFDTEWELVTQRAWLMHWALFVYYNYPKGRDEIIEMFLNQQPYLNAIQVLAPHLLRYLAVAVVTSKSRQKNSLKDLVKVIDIERHSYKDPVTDFLTCLYIKYDFDEAQEMLQKCEEVLSNDFFLTAVLGDFRESARLLIFEMFCRIHQCITIEMLARRLNMSQEEAERWIVDLIRTYRIEGAKIDSKLGQVVMGVKSVSIHEQVMENTKRLTLRAQQIALQLEKGRQDKVKAT
For the molecule B2, in experiment [2], the binding result was “binds”.
